Laboratory results taken from patent US8790653B2, “Peptide inhibitors for mediating stress responses” (Yeda Research and Development Co. Ltd., priority 2004, dated 2014).
Part of at least one peptide drawing is inferred or uncertain, most often the ends. Where no end group is shown, it is not given here.

What was measured:
L12 cells with p53 = assay: Hyperthermia-induced cell death in L12 cells with active p53 (trypan blue); format: cell-based; conditions: 2 hours at 42° C., peptide 100 μg/ml
Procedure: The selected candidate peptides were tested for their ability to interfere with the p53-mediated cellular stress response by testing their capacity to inhibit the response to hyperthermia of the L12 cell line (Wolf, 1984), which lacks endogenous p53 activity and had been stably transfected with the p53 gene or a control vector. In these cells, p53 activity induces growth arrest and cell survival rather than apoptosis in response to hyperthermia (Nitta, 1997).
The amount of cell death was assessed by staining the cells with the vital dye trypan blue (Sigma) and counting the ratio of dead/live cells per visual field with a light microscope.
incubation for 2 hours at 42° C. induced death of all cells that lacked p53 and, in contrast, transient growth arrest and survival of about 80% of the cells with active p53. Four peptides, designated Stressin-1 to −4 (for STress RESponse Specific peptide INhibitor), were identified that at concentrations of 100 μg/ml inhibited p53-mediated growth arrest after hyperthermia and induced death of almost all cells with active p53, which is the response of L12 cells that lack p53 activity (Table 1); the peptide sequences are shown in Table 2.

L12 cells = assay: Cisplatin-induced p53-mediated cell death of L12 cells (DNA content, propidium iodide, FACS); format: cell-based; conditions: 50 μM Cisplatin, 48 hours
Procedure: L12 cells were treated for 48 hours with 50 μM of the DNA-damaging agent Cisplatin and p53-mediated cell death was determined by measuring the DNA content of cells stained with propidium iodide (FIG. 1). Cells incubated in the absence of peptide responded to Cisplatin treatment with p53-mediated cell death.

[1] = test system: Mouse embryo fibroblasts (MEF); assay: Cisplatin-induced cell death of mouse embryo fibroblasts (Neutral red); format: cell-based; conditions: 80 μM Cisplatin
BALB/c mice = assay: Whole body γ-irradiation of BALB/c mice (radiation disease); format: in vivo; conditions: after 40 days; 6.5 Gy; 500 μg/mouse intraperitoneally one hour after irradiation
Excerpt: To test whether Stressin peptide may protect an organism from death by excessive p53 activation and tissue failure by subjecting BALB/c mice to whole body […] (6.5 Gy). A retro-inverso peptide was used to determine whether prolonged in vivo half-life would give an advantage (see Example 6); retro-inverso peptides are resistant to proteases and consist of D-amino acids in reversed order, resulting in an altered peptide backbone but unchanged orientation of the side chains (Van Regenmortel, 1998).
BALB/c mice were subjected to whole body γ-irradiation (6.5 Gy). One hour after irradiation, the mice received intraperitoneally either Stressin-1 (n=7; SEQ ID NO:1) or a modified, retro-inverso Stressin-1 peptide (n=7; SEQ ID NO:5), both at a concentration of 500 μg/mouse, or a sham injection with saline (n=6). The retro-inverso peptide was used to determine whether prolonged in vivo-half-life would give an advantage.

[2] = test system: TNF-α secretion of RAW 264.7 macrophages; assay: LPS- and CpG-induced TNF-α secretion of RAW 264.7 macrophages (ELISA); format: cell-based; conditions: induced by both LPS and CpG oligonucleotides; peptide 50 μM; 6 hours
[3] = test system: Interleukin-6 secretion of RAW 264.7 macrophages; assay: LPS- and CpG-induced Interleukin-6 secretion of RAW 264.7 macrophages (ELISA); format: cell-based; conditions: induced by both LPS and CpG oligonucleotides; peptide 50 μM; 6 hours
[4] = test system: MBP Ac1-9-specific T cell receptor-transgenic Tg4 mice; assay: Experimental autoimmune encephalomyelitis (EAE) in Tg4 mice, clinical EAE score; format: in vivo; conditions: 500 μg peptide in 100 μl PBS intraperitoneally one hour after MBP immunization

## LPPLPYP [Stressin-1, LPPLPYP]
L12 cells with p53
  Incidence of cell death induced by hyperthermia: 100%
L12 cells
  cells rescued from p53-mediated cell death: 35%
[1]
  inhibition of cell death of MEF cells: inhibited cell death of MEF cells induced by 80 μM Cisplatin in a dose-dependent way
[1]; MEF cells
  concentration of maximal efficiency: 50 µM
BALB/c mice
  mice recovered from radiation disease: 86%
[2]
  secretion of TNF-α: inhibited
[3]
  secretion of Interleukin-6: inhibited
[4]
  development of EAE (clinical EAE score): protects mice from EAE
